This is one part of the list.

The target of this experiment is T1, OsSMF1 (Oryza sativa, UniProt Q6ZLB0 1-436).
T1 sequence: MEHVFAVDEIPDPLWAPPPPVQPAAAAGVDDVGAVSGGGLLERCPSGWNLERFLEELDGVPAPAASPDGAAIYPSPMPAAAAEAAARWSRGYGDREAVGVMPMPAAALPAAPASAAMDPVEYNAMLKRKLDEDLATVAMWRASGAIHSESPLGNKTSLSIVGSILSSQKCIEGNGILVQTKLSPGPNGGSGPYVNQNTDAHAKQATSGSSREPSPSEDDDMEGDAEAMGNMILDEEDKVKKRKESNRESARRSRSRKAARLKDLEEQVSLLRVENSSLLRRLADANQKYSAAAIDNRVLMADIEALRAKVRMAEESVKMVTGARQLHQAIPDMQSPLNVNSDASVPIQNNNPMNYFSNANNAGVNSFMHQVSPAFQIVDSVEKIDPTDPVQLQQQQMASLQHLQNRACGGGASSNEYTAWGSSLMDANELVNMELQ
As to the kind of experiment: protein-binding microarray (RPBM); PBS, 2% BSA, 51.3 ng/ul salmon testes DNA, 50 uM zinc acetate, 200 nM TF, 25 C, 1 h; high values mean tight binding. The settings on record: protein: recombinant; tags: N-terminal polyhistidine and DsRed monomer fusion (pET32a); chain copies: 2; label: CyDye5-dUTP incorporated in the synthesized complementary strand; 3' TTTTT single-stranded linker to array surface; dsDNA, one strand shown. The essentials:
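Transcription factors, each fused N-terminally to a polyhistidine tag and DsRed, were expressed in E. coli BL21-CodonPlus and purified on Ni–NTA. A custom Agilent array was made double-stranded by primer extension with Cy5-dUTP and blocked with 2% BSA. It was incubated with 200 nM protein in PBS, 2% BSA, salmon testes DNA and 50 µM zinc acetate at 25 °C for 1 h, then washed. The binding signal is per-feature fluorescence intensity (arbitrary units) read on an Axon 4000B scanner.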
As for “ATTAATAGTATAGTAAGCAACTATTGTATGAATTGGCTATCGGAGTCACCTAGTGCAG”, the binding signal was 3280 fluorescence intensity (a.u.).
For “GATGACATGTGGGGCCCACGTGGGTCCCACCATTTATTATCGGAGTCACCTAGTGCAG” the value was 4730 fluorescence intensity (a.u.).
For “GATGTACTCGAGTATCTTCCCCTTCCTAGTTCCTTCCCTTCGGAGTCACCTAGTGCAG”, the binding signal is 13900 fluorescence intensity (a.u.).
As to “ATTTATATATAATACTAACTATACTACAGTATGTGGCACCCGGAGTCACCTAGTGCAG”, the binding signal is 3300 fluorescence intensity (a.u.).
For “TTTAGCAGTTTCAAACACAACGCTTTCCGTGTCAGGCCGACGGAGTCACCTAGTGCAG” the value was 3240 fluorescence intensity (a.u.); for “GTTTGGGCTCAGGCATTGGCACGTGGGTCGGCATGTCACACGGAGTCACCTAGTGCAG”, 4320 fluorescence intensity (a.u.).
For “TCCACATGCACGCGTGCAGGAACCTAGTCACCAATAACACCGGAGTCACCTAGTGCAG” the value was 4320 fluorescence intensity (a.u.); for “TCATCGCCTCTTGTGTTCGCGCGCGCGAGCAGGGTGGTTGCGGAGTCACCTAGTGCAG”, 3260 fluorescence intensity (a.u.); for “GGGCATGACATGTCACATATCCTTTAACCGATCGTACTATCGGAGTCACCTAGTGCAG”, 7430 fluorescence intensity (a.u.).
The result for “TATGCCATCCTGACACACATGTCATTGACTCATGTGGGTCCGGAGTCACCTAGTGCAG” reads 6620 fluorescence intensity (a.u.).
As for “TGTACTTGTCAGTTGTCACTCTGCTCAGCTGCGGTCGCCACGGAGTCACCTAGTGCAG”, the binding signal is 3730 fluorescence intensity (a.u.).
In the case of “TGTATGAGCTGACGAGGATTATTCATCCTGGTTGGTCGATCGGAGTCACCTAGTGCAG”, the binding signal was 5120 fluorescence intensity (a.u.).
For “GCTTAATACAGCGCGGTAAAAGTAATTAGAGGCAGATAGTCGGAGTCACCTAGTGCAG” the value was 20100 fluorescence intensity (a.u.); for “TGTGTTCCTGTACTTTTAGTATGCTAAAGGGTAATATAGTCGGAGTCACCTAGTGCAG”, 3800 fluorescence intensity (a.u.).
As for “TCTCTGAGCCCCTGCCTTGCTGGCCCTGAACCTCTCTCTCCGGAGTCACCTAGTGCAG”, the binding signal is 3160 fluorescence intensity (a.u.).
For “GATCAGTTGCACCAGAATAACCTGACGCAATGCCGGACGACGGAGTCACCTAGTGCAG” the value was 5250 fluorescence intensity (a.u.); for “TAGGTGTCCCCGTATCACGCACACAGAAGTGTAACCGCCCCGGAGTCACCTAGTGCAG”, 3330 fluorescence intensity (a.u.).
For “CCTCTCCCTCGTCGCATCGCACCATCAATCAATCGATCGACGGAGTCACCTAGTGCAG” the value was 3280 fluorescence intensity (a.u.); for “GAGTTGTACTTGTTCTTAATTTGGCAGGGAAATCTTATGACGGAGTCACCTAGTGCAG”, 21900 fluorescence intensity (a.u.); for “ATGGTCGTTCTCACTTCCGTCATCAATTATTATTGATTGGCGGAGTCACCTAGTGCAG”, 3280 fluorescence intensity (a.u.).
For “ATGACCGAGCAGAAGCATAGCTTGGGCGTCGCGTGGCCCGCGGAGTCACCTAGTGCAG” the value was 9420 fluorescence intensity (a.u.).
For the sequence “GTAAAGTTGCAGTCTTGTTCTTGGCTGGCATATAGATGTGCGGAGTCACCTAGTGCAG”, the binding signal was 3810 fluorescence intensity (a.u.).
For “CGTGCCCCGCCTGCGCAGCCACCTCAGCACGCGCGCGAATCGGAGTCACCTAGTGCAG” the value was 11600 fluorescence intensity (a.u.); for “TCACTAGCAGGCGGGAGGGGCGGCGACGCTAGCAGGCGAGCGGAGTCACCTAGTGCAG”, 3660 fluorescence intensity (a.u.); for “AGAGAGAGGGTGACGTGGACACCTGATATGTAGGTCTCACCGGAGTCACCTAGTGCAG”, 15500 fluorescence intensity (a.u.).
For “TATTGTCAACTTATTAATCATCATATAACGGTGTTGTGTGCGGAGTCACCTAGTGCAG” the value was 3160 fluorescence intensity (a.u.); for “AATGTAATAAATTGTAGATGTCATTGCTATGCATGCATGACGGAGTCACCTAGTGCAG”, 3920 fluorescence intensity (a.u.).
For “CTCCGTCCCTAAAAGAATGCATTTCTAGCTACGCATCTGGCGGAGTCACCTAGTGCAG” the value was 3150 fluorescence intensity (a.u.).
For “ATACCTGATCCTACTTGTCATACACATATTTATCTTATAGCGGAGTCACCTAGTGCAG”, the binding signal is 3620 fluorescence intensity (a.u.).
“CACATGTTCTGAATTGAACCCATGACGCCACATCAAATTTCGGAGTCACCTAGTGCAG”: the binding signal was 4540 fluorescence intensity (a.u.).
The result for “CGCCACCACGTCGTCGCTGATCGGAAACCGATCGGCGATTCGGAGTCACCTAGTGCAG” reads 3260 fluorescence intensity (a.u.); that for “CTTTGCCACGGCGGTCTCTCGTCCTCTTCCTCCTCTCCGCCGGAGTCACCTAGTGCAG”, 4190 fluorescence intensity (a.u.).
The result for “TCATGATCTTTTGAATAAGATGAATGGTCAAATGTTACAACGGAGTCACCTAGTGCAG” reads 4260 fluorescence intensity (a.u.); that for “ATTAATTTGACCAACTTCATTCAACATGTAACATGGTCTCCGGAGTCACCTAGTGCAG”, 4020 fluorescence intensity (a.u.); that for “TTAGTGTGGTAATATTTGGTCATCAACCAAATAGCCTCAACGGAGTCACCTAGTGCAG”, 3510 fluorescence intensity (a.u.).
For “AATATTGAGGATCGATGTACGCACATTATTCGTGTAGATACGGAGTCACCTAGTGCAG”, the binding signal is 3210 fluorescence intensity (a.u.).
For “ATGCTTGTGACAATAGATGTACAAACGTCACATACTAAATCGGAGTCACCTAGTGCAG” the value was 3190 fluorescence intensity (a.u.); for “CGCTGTCCCCGCCCACGCGGCGACGCCACGTGTCCCCACCCGGAGTCACCTAGTGCAG”, 26700 fluorescence intensity (a.u.); for “TAGTAAATGATATCAATTTAGGTGGTGTTCTTTTCTTCTGCGGAGTCACCTAGTGCAG”, 3190 fluorescence intensity (a.u.).
As to “CTAGTTCTTGCTCTTTTCTCGACGTCATCCGATGGCCATGCGGAGTCACCTAGTGCAG”, the binding signal is 6070 fluorescence intensity (a.u.).
The result for “GGTGTCGCGTCGCGTCTGCAGTAGAAATGGAAGCCTGGGGCGGAGTCACCTAGTGCAG” reads 3230 fluorescence intensity (a.u.); that for “ATACCCGGTCCCACCTCTCATACACACGTAACGTCTTGGACGGAGTCACCTAGTGCAG”, 5150 fluorescence intensity (a.u.).

The record behind these values is article PMC7819943, “Rice protein-binding microarrays: a tool to detect cis-acting elements near promoter regions in rice”.
